Data published in the supplement of paper PMC10849652.
Some of the results follow.

The chains behind the UniProt entries cited, without tags or fusion partners. Where a name states a change or a piece, a line headed by the entry shows the natural chain unless it says otherwise.
UniProt Q9H3U1: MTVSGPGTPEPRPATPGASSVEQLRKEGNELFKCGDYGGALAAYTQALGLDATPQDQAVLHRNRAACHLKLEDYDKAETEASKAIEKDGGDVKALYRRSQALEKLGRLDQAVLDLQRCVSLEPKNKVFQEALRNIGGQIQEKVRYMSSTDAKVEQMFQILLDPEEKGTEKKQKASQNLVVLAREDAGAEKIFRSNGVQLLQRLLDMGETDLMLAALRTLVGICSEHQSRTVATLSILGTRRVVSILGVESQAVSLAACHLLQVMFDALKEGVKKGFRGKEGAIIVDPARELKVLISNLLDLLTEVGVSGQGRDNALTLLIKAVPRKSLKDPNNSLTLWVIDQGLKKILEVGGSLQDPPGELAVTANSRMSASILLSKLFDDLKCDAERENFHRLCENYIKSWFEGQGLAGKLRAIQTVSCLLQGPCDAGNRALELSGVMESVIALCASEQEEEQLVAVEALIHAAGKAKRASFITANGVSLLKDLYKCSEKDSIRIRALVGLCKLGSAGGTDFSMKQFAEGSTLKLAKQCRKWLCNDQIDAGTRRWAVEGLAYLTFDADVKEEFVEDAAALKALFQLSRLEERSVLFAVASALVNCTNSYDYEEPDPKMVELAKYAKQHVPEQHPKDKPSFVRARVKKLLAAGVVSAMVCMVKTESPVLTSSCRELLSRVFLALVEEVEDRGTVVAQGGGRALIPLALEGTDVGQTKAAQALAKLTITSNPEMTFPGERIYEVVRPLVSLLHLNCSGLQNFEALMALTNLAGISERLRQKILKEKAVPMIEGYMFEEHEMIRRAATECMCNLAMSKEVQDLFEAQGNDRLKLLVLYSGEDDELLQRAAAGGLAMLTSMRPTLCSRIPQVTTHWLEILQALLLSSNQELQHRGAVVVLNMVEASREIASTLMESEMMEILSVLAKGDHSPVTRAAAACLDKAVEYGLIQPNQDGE
UniProt Q9NZI7: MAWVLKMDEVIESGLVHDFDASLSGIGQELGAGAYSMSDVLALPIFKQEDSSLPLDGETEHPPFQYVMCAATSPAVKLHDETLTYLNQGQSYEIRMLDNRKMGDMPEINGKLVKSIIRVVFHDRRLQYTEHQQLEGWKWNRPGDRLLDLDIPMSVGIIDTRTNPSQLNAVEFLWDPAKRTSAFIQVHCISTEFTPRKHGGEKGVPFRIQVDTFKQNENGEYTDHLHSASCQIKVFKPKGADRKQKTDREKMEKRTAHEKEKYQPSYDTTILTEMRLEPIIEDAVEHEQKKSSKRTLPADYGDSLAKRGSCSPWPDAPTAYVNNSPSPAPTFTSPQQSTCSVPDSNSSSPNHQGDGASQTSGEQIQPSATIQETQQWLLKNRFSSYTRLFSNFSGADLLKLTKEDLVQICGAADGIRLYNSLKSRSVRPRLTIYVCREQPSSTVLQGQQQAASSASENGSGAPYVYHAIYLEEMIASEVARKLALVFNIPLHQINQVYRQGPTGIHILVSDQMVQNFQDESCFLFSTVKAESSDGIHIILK
UniProt O95292, whole entry, looked up: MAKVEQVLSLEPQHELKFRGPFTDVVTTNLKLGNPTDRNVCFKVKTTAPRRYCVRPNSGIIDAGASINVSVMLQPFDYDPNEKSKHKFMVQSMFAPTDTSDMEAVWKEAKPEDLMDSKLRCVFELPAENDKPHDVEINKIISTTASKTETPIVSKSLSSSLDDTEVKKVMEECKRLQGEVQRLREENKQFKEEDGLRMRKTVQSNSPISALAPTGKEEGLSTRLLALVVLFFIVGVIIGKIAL
UniProt Q9P0L0: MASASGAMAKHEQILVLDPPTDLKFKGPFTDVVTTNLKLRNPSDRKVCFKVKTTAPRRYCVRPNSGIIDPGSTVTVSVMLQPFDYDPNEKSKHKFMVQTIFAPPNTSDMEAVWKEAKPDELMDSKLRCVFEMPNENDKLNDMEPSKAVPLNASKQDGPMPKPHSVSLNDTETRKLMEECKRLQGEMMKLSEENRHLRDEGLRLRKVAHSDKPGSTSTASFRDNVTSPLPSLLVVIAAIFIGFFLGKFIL
UniProt Q15386: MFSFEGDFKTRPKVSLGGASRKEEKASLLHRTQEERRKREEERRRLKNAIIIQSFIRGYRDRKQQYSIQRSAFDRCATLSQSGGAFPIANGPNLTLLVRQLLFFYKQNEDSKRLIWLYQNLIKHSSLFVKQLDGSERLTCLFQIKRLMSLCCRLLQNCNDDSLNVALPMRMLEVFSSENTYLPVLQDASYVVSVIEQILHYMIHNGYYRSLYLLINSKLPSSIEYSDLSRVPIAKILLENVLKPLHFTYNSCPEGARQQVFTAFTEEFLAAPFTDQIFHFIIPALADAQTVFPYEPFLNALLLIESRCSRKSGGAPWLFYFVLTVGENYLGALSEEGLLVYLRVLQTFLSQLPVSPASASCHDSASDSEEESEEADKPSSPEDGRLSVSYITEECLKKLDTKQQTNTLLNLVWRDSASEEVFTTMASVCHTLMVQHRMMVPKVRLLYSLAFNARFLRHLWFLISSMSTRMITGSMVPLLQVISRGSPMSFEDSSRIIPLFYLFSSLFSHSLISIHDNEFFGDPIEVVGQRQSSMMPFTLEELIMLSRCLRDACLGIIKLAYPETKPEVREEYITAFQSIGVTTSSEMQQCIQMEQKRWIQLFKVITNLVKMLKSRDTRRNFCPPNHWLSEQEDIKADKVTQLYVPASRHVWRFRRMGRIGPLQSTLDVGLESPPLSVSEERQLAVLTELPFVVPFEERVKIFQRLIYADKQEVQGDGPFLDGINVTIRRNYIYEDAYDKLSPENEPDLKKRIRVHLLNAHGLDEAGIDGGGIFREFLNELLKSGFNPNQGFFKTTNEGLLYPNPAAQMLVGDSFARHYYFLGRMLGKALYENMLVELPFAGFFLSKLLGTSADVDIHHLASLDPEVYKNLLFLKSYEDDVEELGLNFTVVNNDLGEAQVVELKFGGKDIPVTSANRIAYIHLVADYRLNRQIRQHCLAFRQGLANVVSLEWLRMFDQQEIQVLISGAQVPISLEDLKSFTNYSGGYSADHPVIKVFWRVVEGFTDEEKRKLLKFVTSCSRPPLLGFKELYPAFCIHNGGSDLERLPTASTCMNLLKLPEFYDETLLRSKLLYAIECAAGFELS
UniProt Q70CQ3: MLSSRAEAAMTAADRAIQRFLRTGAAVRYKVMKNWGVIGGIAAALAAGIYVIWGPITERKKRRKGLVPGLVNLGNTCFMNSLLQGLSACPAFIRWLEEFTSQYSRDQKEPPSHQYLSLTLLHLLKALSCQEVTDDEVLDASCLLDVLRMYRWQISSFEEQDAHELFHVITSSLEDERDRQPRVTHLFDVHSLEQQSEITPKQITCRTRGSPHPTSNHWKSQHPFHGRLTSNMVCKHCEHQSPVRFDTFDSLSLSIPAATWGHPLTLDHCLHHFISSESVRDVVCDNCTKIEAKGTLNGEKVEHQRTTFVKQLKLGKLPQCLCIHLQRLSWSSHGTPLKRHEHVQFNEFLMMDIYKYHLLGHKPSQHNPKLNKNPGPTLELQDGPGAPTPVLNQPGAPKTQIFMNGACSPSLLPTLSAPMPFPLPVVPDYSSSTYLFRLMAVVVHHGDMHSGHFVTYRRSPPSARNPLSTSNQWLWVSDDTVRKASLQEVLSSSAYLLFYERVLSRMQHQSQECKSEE
UniProt P63027, whole entry, looked up: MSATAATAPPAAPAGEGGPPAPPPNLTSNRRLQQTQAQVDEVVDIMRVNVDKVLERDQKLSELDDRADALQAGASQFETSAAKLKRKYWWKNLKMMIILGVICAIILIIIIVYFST
UniProt P14927: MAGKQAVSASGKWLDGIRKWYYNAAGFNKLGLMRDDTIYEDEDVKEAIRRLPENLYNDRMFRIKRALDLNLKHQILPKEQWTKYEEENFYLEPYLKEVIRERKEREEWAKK
UniProt P54578: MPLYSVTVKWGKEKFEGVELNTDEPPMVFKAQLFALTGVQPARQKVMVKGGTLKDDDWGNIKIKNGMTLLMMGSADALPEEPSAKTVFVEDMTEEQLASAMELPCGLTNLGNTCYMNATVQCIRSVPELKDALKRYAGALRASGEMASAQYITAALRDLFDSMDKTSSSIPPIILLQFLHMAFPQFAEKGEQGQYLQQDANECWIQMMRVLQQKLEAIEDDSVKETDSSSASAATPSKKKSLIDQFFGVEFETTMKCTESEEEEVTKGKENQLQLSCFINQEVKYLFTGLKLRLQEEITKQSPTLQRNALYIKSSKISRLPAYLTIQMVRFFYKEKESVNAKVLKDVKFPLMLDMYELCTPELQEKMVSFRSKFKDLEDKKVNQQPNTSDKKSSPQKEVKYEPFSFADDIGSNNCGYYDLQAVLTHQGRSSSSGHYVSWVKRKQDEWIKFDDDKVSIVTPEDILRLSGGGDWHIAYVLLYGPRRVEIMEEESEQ
UniProt Q9HAU5: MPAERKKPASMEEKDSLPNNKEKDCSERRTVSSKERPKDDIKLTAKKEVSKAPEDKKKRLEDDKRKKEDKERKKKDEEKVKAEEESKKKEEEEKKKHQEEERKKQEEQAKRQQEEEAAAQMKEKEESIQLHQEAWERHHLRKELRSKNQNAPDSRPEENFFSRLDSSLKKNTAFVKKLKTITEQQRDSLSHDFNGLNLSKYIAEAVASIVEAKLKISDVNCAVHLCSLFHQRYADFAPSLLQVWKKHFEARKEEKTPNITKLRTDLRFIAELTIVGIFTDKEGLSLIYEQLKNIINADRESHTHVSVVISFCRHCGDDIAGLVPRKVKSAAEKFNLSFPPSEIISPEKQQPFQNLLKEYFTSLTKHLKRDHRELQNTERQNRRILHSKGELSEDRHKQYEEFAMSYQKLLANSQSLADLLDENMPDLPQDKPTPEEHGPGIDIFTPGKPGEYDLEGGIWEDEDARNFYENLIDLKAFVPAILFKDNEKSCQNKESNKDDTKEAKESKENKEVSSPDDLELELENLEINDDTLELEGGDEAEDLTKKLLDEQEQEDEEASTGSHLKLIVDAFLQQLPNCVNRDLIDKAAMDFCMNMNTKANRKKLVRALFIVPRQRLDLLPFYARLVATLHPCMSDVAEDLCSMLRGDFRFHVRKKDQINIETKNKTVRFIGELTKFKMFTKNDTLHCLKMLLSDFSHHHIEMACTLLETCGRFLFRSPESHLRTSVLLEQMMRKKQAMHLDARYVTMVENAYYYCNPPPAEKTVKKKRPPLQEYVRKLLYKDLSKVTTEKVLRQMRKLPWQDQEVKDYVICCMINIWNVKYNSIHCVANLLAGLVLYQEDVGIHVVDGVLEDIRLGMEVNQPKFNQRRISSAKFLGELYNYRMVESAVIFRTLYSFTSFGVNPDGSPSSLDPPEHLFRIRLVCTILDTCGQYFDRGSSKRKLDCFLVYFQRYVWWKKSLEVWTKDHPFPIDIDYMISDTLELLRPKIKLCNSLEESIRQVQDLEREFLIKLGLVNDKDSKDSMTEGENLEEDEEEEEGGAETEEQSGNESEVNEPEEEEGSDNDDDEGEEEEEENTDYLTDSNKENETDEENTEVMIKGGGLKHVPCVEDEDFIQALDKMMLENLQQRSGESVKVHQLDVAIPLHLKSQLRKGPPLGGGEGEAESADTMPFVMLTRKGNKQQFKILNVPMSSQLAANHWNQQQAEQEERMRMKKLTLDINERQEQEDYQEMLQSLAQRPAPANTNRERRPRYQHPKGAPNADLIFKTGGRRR
UniProt Q8WVY7: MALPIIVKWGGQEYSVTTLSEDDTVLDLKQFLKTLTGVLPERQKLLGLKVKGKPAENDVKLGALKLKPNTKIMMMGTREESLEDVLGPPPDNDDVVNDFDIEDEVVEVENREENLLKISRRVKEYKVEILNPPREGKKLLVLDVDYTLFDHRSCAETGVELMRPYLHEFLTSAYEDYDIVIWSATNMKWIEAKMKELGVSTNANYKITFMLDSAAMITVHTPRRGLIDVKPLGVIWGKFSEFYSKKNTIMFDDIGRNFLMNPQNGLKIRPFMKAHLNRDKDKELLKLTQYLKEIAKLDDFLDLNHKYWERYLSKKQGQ

Compound: c1ccc([C@@H]2C[C@H]2NC2CCNCC2)cc1
Assay: log2 fold change, soluble protein after heating vs DMSO (PISA); higher = thermal stabilisation; K562 cells, 10 uM, 30 min; active = over 0.2 and 3.5 SD of the protein, either way, in both replicates (recomputed)
Outline: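 Values are thermal stability changes relative to control samples and are taken from duplicates. They are stated as log2 fold changes. Before quantification by TMTpro 16plex LC-MS/MS with equalised channel sums, K562 cells at 2×10^6 cells/mL were treated with 10 μM compound for 30 min, heated in aliquots for 3 min across 48°C-58°C, pooled, extracted in PBS with 0.5% NP-40 at 4°C, and centrifuged at 21,000xg for 90 min to give the soluble supernatant.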

Target	log2 fold change
UNC45A (UniProt Q9H3U1)	inactive: -0.022
UBP1 (UniProt Q9NZI7)	inactive: -0.02
VAPB (UniProt O95292)	inactive: -0.025
VAPA (UniProt Q9P0L0)	inactive: 0.012
UBE3C (UniProt Q15386)	inactive: 0.002
USP30 (UniProt Q70CQ3)	inactive: 0.108
VAMP2 (UniProt P63027)	inactive: 0.066
UQCRB (UniProt P14927)	inactive: -0.012
USP14 (UniProt P54578)	inactive: -0.025
UPF2 (UniProt Q9HAU5)	inactive: -0.038
UBLCP1 (UniProt Q8WVY7)	inactive: 0.011
